Measurements published in US20220267440A1.
Where a chain is given by its changes, count along the chain named. These are yes or no findings as the source states them, for the method shown. Some binding calls cover weakened binding; strength is not graded here.

Amino acid sequences for entries named in this document (tags omitted). A change or cut given only in a name is not applied to a line headed by its entry. Residues count along the entry.
UniProt Q08722: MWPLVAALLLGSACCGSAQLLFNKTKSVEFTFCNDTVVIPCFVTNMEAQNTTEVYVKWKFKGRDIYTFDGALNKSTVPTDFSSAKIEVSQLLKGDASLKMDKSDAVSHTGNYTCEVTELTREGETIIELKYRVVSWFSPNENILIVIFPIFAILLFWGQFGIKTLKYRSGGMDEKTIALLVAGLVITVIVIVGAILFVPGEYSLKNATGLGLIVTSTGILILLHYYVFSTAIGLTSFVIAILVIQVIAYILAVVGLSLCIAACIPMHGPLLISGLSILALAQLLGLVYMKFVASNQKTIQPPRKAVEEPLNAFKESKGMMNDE
native human CD47 expressed on the surface of the CCRF-CEM human tumor cell line: residues 19-323 of Q08722
recombinant human CD47 (Novoprotein cat no. C321, lot no. 0329689): residues 19-139 of Q08722

B1: anti-CD47 AlivaMab antibody 151 (antibody, IgG1, V domains shown)
VH: QVQLQESGPGLVKPSETLSLTCTVSGGSISSYYWSWIRQPPGKGLEWIGYIYYSGSTNYNPSLKSRVTISVDTSKNQFSLKLSSVTAADTAVYYCARKRKYFDYWGQGTLVTVSS
VL: DIQMTQSPSSLSASVGDRVTITCRASQGISNYLAWYQQKPGKVPKLLIYAASTLQSGVPSRFSGSGSGTDFTLTISSLQPEDVATYYCQKCNSAPFTFGPGTKVDIK
B2: anti-CD47 AlivaMab antibody 85 (antibody, IgG1, V domains shown)
VH: QVQLQESGPGLVKASETLSLTCTVSGGSISGYYWSWIRQPAGKGLEWIGRIYNSGSTNYNPSLKSRVTMSVDTSKNQFSLKLSSVTAADTAVYYCARQTYLDYWGQGTLVTVSS
VL: DIQMTQSPSAMSASVGDRVTITCRASQGISIYLAWFQQKPGKVPKRLIYAASSLQSGVPSRFSGSGSGTEFTLTISSLQPEDFATYYCLQHNSYPLTFGGGTKVEIK
B3: anti-CD47 AlivaMab antibody 164 (antibody, IgG1, V domains shown)
VH: B1 VH with I51V, S56G, K100G, Y101T
VL: DIQMTQSPSSVSASVGDRVTITCRASQGISSWLAWYQQKPGKAPKLLIYAASSLQSGVPSRFSGSGSGTDFTLTISSLQPEDFATYFCQQANSFPLTFGGGTKVEIK
B4: anti-CD47 AlivaMab antibody 153 (antibody, IgG1, V domains shown)
VH: B1 VH with S30N, S31Y, K100S, Y101S, F102Y
VL: B2 VL with I31N, K45R, L96W, G100Q
B5: anti-CD47 AlivaMab antibody 5 (antibody, IgG1, V domains shown)
VH: B1 VH with K98G, R99K, K100G, Y101G, F102T
VL: B3 VL with F87Y, L96R, G100Q
B6: anti-CD47 AlivaMab antibody 87 (antibody, IgG1, V domains shown)
VH: B1 VH with S83N, K100A, Y101F, F102L
VL: B2 VL with A10S, M11L, I31N, V43A, R46S, S56G, R61K, E70D, L89Q, H91Y
B7: anti-CD47 AlivaMab antibody 144 (antibody, IgG1, V domains shown)
VH: B1 VH with S56T, K100G, Y101E
VL: B3 VL with V15E, S31R, F87Y

target: recombinant human CD47 (Novoprotein cat no. C321, lot no. 0329689) (human) (UniProt Q08722); assay: SPR

binding, binds:
B1

target: native human CD47 expressed on the surface of the CCRF-CEM human tumor cell line (human) (UniProt Q08722); assay: flow cytometry on CCRF-CEM cells

binding, binds:
B2
B3
B1
B4
B5
B6
B7

target: native human CD47 expressed on the surface of the CCRF-CEM human tumor cell line (human) (UniProt Q08722); assay: flow cytometry on CCRF-CEM cells, geometric mean FL1-H

binding, binds:
B2
B3
B1
B4
B5
B6
B7
